PubChem BioAssay AID1259308 – NCATS | 2017
Screen: 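Knock-downs that increase output of a recombinant reporter protein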 (primary screen). System: human HEK293 embryonic kidney cells stably expressing firefly luciferase (HEK-CMV-Luc2-Hygro). Reagents: single siRNA against human genes, 0.8 pmol siRNA per well. Duration: 72 h. Read-out: 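Reporter luminescence and viable-cell signal on separate replicate plates, given as percent of non-targeting control and median/MAD z-scores, plus per-cell luciferase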. Scale: total luciferase, z-score and total luciferase, % of control: higher = more reporter protein produced. Active means: 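Active when the median/MAD z-score for overall luciferase is greater than 3; a gene was taken forward for validation with new siRNAs if at least two of its three siRNAs passed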. Calls: active = raised luciferase; inactive = no rise.
In all, the deposit lists about 59,000 reagents; this is an unselected part. In the full data, about 1,510 (2.6%) are marked active. 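Calls use total luciferase alone and ignore viability, so some active siRNAs may act by altering cell number.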 The numbers tell different reagents against one gene apart. Further read-outs or replicates are left out here.

target	reagent no.	total luciferase, z-score	total luciferase, % of control	Outcome
SRSF10 (serine and arginine rich splicing factor 10)	1	0.153	84.9	inactive
SRSF10 (serine and arginine rich splicing factor 10)	2	-1.95	43.1	inactive
SRSF10 (serine and arginine rich splicing factor 10)	3	-1.05	61	inactive
TMEM63A (transmembrane protein 63A)	1	0.575	93.3	inactive
TMEM63A (transmembrane protein 63A)	2	2.94	140	inactive
TMEM63A (transmembrane protein 63A)	3	-0.379	74.4	inactive
MT2A (metallothionein 2A)	1	2.11	124	inactive
MT2A (metallothionein 2A)	2	-0.0623	80.6	inactive
MT2A (metallothionein 2A)	3	1.76	117	inactive

Just “total luciferase, % of control” (2 entries from above):
SRSF10 (serine and arginine rich splicing factor 10) #2: 43.1
SRSF10 (serine and arginine rich splicing factor 10) #3: 61

The listing continues:
target	reagent no.	total luciferase, z-score	total luciferase, % of control	Outcome
AKIP1 (A-kinase interacting protein 1)	1	-0.373	74.5	inactive
AKIP1 (A-kinase interacting protein 1)	2	-0.631	69.3	inactive
AKIP1 (A-kinase interacting protein 1)	3	0.35	88.8	inactive
RMC1 (regulator of MON1-CCZ1)	1	-0.174	78.4	inactive
RMC1 (regulator of MON1-CCZ1)	2	0.95	101	inactive
RMC1 (regulator of MON1-CCZ1)	3	0.357	89	inactive
STX12 (syntaxin 12)	1	3.87	159	active
STX12 (syntaxin 12)	2	-0.459	72.8	inactive
STX12 (syntaxin 12)	3	-1.08	60.3	inactive
ACTRT2 (actin related protein T2)	1	0.718	96.2	inactive
ACTRT2 (actin related protein T2)	2	0.00717	82	inactive
ACTRT2 (actin related protein T2)	3	1.32	108	inactive
HOXC5 (homeobox C5)	1	0.46	91	inactive
HOXC5 (homeobox C5)	2	0.203	85.9	inactive
HOXC5 (homeobox C5)	3	0.678	95.4	inactive
